Some of the results follow.
compound: COc1ccc(Cn2ccc3cc(C)c(C(=O)NO)cc32)cc1; experiment: dose-dependent thermal stabilisation call (2D-TPP, DLPTP, 10% FDR) (binary (1 = stabilised)); higher = stabilised by the compound; details: system: HL-60 intact cells; concentration range 0.04-10 µM
Procedure: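 2D thermal proteome profiling in intact HL-60 cells treated with BRD-3811 (0, 0.04, 0.29, 2, 10 uM) for 90 min at 37 C, then heated 3 min at one of 12 temperatures (42-63.9 C). Soluble protein was quantified by TMT10 MS. The value is the DLPTP call of the paper: dose-dependent thermal stabilisation over all temperatures at 10% FDR (F-test of a dose-response against a flat model); one experiment, one call per tested protein.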

Protein sequences, listed by entry. Tags and fused reporters are not part of them. Lines headed by an entry give the natural chain unless they say otherwise; changes in a name come on top.
UniProt Q9Y255: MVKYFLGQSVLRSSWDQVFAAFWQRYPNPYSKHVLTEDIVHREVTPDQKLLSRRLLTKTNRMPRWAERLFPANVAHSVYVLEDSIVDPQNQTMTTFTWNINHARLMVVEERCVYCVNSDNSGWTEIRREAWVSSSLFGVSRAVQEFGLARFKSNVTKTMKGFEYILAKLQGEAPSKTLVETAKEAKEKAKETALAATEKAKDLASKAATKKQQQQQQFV
UniProt Q9H9Y6, whole entry: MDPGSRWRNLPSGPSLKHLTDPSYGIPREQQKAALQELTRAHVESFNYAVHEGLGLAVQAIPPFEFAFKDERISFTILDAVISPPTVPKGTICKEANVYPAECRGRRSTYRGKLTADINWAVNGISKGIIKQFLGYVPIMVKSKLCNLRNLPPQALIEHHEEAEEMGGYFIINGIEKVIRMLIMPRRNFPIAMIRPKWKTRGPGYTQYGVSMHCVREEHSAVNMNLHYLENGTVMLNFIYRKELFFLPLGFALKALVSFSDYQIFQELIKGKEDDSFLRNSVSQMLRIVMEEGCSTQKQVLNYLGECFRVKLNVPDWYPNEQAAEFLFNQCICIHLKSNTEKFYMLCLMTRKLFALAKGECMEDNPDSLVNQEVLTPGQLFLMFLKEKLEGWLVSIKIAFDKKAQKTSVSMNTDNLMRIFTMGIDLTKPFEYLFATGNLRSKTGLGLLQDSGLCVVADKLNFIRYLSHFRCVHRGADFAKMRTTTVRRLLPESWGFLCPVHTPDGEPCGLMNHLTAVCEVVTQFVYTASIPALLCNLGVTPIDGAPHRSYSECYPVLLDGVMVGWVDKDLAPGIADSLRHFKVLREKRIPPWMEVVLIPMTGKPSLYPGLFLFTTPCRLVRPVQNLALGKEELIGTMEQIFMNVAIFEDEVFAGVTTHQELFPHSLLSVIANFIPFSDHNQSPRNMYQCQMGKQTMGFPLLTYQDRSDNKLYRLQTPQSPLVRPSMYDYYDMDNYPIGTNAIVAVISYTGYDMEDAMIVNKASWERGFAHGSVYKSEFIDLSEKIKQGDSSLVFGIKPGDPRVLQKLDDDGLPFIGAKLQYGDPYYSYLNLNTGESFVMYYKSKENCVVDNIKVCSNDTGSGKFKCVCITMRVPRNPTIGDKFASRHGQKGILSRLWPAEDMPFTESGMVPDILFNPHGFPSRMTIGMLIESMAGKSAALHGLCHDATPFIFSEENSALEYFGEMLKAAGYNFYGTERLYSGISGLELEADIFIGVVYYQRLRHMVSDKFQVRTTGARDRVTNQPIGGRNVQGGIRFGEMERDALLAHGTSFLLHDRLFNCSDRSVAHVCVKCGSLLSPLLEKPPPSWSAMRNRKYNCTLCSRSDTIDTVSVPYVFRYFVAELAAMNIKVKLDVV
UniProt P30044: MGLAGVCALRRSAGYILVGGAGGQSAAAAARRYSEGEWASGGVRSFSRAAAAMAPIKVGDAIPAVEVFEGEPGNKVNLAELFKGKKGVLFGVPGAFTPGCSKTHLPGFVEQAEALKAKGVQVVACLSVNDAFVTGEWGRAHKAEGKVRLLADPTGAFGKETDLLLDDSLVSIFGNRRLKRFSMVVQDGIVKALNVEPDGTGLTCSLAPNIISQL
UniProt Q9UKY4: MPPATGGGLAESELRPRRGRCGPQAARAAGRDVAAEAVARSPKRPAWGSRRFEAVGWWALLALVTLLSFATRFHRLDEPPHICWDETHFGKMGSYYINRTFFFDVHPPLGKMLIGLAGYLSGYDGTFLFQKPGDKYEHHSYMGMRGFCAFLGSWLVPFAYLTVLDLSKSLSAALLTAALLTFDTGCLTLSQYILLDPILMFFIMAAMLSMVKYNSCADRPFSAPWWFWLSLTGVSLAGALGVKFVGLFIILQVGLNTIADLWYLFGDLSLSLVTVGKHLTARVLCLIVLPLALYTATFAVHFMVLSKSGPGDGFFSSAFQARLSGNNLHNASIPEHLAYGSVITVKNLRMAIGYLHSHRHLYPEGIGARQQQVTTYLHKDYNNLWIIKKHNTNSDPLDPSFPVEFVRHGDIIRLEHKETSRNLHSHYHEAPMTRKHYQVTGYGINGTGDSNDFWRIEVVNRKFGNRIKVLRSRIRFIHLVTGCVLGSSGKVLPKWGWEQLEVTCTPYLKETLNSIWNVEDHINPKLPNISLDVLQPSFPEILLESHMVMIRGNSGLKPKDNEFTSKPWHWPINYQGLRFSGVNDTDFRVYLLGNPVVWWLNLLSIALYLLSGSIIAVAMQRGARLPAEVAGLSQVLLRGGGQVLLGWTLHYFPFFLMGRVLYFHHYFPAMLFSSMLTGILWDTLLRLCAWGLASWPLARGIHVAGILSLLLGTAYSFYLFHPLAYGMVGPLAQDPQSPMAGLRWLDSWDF
UniProt P14859: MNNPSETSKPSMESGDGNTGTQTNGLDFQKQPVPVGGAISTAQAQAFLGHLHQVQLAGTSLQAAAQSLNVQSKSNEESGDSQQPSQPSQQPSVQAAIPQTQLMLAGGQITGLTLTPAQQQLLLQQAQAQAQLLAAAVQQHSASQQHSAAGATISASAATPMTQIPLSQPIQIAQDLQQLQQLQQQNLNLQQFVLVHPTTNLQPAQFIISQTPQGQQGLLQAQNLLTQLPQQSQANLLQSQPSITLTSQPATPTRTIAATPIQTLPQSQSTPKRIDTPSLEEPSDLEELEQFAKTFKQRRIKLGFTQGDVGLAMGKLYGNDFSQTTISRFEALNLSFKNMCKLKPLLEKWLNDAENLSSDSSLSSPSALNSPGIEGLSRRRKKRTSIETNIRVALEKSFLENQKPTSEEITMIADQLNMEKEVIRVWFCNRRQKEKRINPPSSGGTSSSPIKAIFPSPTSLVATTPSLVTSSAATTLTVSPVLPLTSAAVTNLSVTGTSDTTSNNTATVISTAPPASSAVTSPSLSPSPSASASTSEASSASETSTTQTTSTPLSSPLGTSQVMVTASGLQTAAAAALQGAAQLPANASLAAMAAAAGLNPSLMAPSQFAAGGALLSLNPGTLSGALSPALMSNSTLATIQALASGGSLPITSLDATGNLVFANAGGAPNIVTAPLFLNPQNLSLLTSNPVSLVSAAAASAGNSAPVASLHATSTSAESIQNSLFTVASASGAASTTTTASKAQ
UniProt Q92871: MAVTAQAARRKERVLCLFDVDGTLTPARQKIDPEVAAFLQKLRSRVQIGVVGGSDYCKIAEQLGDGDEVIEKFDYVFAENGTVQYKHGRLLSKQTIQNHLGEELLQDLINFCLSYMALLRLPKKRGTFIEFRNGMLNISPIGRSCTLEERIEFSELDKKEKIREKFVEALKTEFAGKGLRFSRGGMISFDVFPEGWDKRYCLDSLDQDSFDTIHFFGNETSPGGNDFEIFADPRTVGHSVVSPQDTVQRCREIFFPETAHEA
UniProt Q9NW08: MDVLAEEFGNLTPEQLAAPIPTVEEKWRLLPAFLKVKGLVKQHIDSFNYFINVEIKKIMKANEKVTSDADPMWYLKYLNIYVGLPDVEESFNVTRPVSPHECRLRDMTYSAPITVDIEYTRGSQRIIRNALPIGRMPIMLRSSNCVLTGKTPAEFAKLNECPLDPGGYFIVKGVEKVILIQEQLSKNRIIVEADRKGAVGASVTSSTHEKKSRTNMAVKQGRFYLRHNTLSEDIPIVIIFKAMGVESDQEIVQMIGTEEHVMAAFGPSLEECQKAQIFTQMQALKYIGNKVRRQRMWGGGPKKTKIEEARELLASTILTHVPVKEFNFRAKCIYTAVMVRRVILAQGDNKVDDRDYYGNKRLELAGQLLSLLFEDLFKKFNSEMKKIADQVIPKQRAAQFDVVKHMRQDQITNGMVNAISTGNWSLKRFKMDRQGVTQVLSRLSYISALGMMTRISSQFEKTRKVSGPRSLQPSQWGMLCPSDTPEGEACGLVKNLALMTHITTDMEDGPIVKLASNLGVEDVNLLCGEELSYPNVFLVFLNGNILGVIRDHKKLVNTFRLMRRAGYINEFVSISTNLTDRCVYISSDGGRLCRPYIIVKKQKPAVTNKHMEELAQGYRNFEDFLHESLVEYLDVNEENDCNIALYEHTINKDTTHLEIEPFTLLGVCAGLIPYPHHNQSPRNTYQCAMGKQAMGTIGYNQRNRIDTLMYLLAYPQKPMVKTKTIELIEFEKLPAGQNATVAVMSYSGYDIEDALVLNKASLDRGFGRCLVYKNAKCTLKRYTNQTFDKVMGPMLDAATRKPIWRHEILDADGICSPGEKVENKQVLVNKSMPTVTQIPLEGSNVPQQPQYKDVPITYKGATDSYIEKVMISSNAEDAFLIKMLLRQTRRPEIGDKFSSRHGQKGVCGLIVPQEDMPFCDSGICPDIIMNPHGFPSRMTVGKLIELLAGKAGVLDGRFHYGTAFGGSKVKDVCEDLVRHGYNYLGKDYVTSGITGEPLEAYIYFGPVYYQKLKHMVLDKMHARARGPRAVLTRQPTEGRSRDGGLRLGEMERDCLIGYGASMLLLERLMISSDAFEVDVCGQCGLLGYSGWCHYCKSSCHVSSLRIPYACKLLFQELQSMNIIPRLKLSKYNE
UniProt Q9P215: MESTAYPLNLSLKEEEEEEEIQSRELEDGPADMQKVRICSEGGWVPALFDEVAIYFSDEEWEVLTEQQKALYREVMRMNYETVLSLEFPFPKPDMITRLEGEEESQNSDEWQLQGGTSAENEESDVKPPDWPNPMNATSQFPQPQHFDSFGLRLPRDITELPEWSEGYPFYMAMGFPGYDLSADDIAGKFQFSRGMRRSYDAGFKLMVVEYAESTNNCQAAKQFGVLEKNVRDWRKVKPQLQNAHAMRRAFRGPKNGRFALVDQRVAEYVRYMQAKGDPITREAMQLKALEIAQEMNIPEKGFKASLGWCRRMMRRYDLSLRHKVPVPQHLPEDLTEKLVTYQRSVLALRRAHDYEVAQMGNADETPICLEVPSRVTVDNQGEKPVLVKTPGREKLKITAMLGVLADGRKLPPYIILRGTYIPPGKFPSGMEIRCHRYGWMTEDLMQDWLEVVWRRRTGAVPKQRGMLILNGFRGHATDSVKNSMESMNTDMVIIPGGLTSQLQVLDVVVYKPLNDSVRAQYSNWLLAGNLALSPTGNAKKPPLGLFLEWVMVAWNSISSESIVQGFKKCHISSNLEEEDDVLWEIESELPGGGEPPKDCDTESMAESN
UniProt Q13131: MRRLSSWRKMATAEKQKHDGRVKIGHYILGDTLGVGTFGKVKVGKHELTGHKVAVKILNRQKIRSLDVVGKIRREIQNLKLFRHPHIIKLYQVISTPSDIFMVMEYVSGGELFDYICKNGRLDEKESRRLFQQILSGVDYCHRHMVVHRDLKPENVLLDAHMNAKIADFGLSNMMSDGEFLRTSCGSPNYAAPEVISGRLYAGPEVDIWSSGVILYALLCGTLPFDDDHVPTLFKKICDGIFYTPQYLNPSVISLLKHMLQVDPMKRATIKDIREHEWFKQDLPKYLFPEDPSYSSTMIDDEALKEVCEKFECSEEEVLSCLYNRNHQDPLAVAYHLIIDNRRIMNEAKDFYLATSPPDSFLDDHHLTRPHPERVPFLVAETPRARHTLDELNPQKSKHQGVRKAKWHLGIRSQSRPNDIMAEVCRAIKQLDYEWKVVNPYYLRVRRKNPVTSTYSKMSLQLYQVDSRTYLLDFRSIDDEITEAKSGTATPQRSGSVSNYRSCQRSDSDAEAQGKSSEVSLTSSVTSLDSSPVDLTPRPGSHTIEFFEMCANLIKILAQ
UniProt O43586: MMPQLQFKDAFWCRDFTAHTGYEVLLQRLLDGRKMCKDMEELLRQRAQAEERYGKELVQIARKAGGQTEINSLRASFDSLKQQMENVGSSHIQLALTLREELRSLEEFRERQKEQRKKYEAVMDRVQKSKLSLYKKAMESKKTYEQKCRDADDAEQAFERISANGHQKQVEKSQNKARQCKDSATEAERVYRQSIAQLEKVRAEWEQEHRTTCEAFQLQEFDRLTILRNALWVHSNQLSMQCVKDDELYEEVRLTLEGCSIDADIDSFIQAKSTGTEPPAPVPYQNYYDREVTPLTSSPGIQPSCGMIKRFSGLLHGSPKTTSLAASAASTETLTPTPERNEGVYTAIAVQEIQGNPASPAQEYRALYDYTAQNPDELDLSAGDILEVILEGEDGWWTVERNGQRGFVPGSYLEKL
UniProt Q8WWY3: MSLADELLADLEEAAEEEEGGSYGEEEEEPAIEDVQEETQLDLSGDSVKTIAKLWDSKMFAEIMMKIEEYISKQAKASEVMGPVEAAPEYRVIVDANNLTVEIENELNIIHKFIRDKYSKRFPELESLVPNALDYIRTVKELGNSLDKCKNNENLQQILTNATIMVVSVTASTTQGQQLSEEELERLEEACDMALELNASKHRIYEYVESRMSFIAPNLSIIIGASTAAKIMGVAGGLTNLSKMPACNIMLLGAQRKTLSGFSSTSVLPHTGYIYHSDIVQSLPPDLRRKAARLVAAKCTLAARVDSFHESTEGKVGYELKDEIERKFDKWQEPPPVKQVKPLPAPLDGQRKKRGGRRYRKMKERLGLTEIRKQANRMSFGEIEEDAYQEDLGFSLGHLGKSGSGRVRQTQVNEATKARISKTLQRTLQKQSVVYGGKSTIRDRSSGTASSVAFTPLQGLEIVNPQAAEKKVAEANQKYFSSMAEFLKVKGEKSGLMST

Target	dose-dependent thermal stabilisation call
PTPMT1 (UniProt Q8WUK0)	inactive: 0
POLR1E (UniProt Q9GZS1)	inactive: 0
PRKRIP1 (UniProt Q9H875)	inactive: 0
PRELID1 (UniProt Q9Y255)	active: 1
POLR1B (UniProt Q9H9Y6)	inactive: 0
PRDX5 (UniProt P30044)	inactive: 0
PPM1B (UniProt O75688)	inactive: 0
POMT2 (UniProt Q9UKY4)	inactive: 0
PRPF40A (UniProt O75400)	inactive: 0
PSAP (UniProt P07602)	inactive: 0
POU2F1 (UniProt P14859)	inactive: 0
PMM1 (UniProt Q92871)	inactive: 0
POLR3B (UniProt Q9NW08)	inactive: 0
POGK (UniProt Q9P215)	inactive: 0
PSPH (UniProt P78330)	inactive: 0
PTMA (UniProt P06454)	inactive: 0
PRMT1 (UniProt Q99873)	inactive: 0
PRMT3 (UniProt O60678)	inactive: 0
PRKAA1 (UniProt Q13131)	inactive: 0
PSTPIP1 (UniProt O43586)	inactive: 0
PPID (UniProt Q08752)	inactive: 0
PML (UniProt P29590)	inactive: 0
POLR2I (UniProt P36954)	inactive: 0
PRMT5 (UniProt O14744)	inactive: 0
PRPF31 (UniProt Q8WWY3)	inactive: 0
POLDIP2 (UniProt Q9Y2S7)	inactive: 0
PPP1CA (UniProt P62136)	inactive: 0

2 records drawn at random from the list so far:
Target	dose-dependent thermal stabilisation call
PPM1B (UniProt O75688)	inactive: 0
PRMT3 (UniProt O60678)	inactive: 0

Source: the supplement of paper PMC7666118
